Here are results for 1 sequence from PMC13469816.

The exact form of at least one protein or probe is not confirmed. Where cells or extracts were used, other partners may take part. At least one verdict was read from the data and is not stated in words by the source. Tags and fusion partners may be left off the protein sequences shown.

The series concerns the target T1, C/EBPβ (UniProt P28033).
T1 sequence (looked up, limits assumed): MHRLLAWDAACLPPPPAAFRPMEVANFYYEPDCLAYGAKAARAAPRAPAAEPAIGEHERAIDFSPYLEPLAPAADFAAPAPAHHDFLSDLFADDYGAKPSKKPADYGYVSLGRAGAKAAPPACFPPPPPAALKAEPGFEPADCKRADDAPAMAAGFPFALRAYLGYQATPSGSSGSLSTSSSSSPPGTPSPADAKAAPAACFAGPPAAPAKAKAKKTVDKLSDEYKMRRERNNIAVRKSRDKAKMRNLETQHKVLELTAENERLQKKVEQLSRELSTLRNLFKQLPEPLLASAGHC
The series can be described thus: EMSA. As to conditions: nuclear extract, UPF1 knockdown raises homodimer species 8-fold; EMSA: conditions as previously described (not given); protein in an extract; label: 32P. (In EMSA bound probe runs differently from free probe, usually more slowly.)

As to “GATCCATATCCCTGATTGCGCAATAGGCTCAAAA (double strand) [C/EBP consensus EMSA probe]”, the binding result is on record as “binds”.
